The assay concerns the target SFB-tagged NF2 (human) (UniProt P35240). The experiment in a line: affinity purification with mass spectrometry; HEK293A cells stably expressing the SFB-tagged bait, lysed in NETN buffer; streptavidin beads, biotin elution, then S protein beads; LC-MS/MS.

Sequences of proteins named here, by UniProt entry; tags and fusion partners are left off.
UniProt Q9HCM4: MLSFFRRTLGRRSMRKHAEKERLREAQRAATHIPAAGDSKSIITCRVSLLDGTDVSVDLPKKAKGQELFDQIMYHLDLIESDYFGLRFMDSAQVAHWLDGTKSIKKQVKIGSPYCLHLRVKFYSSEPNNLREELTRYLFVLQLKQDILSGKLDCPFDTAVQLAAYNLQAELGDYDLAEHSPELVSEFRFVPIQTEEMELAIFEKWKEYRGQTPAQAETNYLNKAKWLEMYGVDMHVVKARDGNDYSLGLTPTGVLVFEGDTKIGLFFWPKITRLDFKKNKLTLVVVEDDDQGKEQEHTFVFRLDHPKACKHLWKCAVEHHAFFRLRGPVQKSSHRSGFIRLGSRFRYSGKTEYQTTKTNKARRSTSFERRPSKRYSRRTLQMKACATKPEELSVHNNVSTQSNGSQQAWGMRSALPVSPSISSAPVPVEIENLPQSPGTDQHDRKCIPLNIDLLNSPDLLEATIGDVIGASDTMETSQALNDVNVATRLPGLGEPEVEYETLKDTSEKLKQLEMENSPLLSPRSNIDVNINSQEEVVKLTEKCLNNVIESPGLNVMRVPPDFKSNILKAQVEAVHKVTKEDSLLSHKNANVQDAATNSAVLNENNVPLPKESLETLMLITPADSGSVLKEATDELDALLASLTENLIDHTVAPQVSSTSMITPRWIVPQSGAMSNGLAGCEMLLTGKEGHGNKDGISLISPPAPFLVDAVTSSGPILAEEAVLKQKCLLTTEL
UniProt Q9UJV9: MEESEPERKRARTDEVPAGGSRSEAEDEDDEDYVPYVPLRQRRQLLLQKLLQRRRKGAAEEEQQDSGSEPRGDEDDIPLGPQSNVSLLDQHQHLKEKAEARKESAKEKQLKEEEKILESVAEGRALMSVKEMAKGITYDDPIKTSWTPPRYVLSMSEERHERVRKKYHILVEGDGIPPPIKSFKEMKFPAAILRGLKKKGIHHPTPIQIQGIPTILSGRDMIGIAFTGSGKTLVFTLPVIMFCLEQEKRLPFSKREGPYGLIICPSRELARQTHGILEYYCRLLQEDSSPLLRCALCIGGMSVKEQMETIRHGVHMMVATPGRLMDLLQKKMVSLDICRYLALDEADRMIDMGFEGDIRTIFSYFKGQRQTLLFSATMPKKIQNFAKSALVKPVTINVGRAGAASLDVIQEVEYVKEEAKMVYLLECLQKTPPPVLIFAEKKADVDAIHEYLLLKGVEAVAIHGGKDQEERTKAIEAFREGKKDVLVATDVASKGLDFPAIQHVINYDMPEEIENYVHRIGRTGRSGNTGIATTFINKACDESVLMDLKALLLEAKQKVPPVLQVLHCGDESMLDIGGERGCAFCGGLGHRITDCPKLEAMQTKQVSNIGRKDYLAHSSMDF
UniProt Q14978: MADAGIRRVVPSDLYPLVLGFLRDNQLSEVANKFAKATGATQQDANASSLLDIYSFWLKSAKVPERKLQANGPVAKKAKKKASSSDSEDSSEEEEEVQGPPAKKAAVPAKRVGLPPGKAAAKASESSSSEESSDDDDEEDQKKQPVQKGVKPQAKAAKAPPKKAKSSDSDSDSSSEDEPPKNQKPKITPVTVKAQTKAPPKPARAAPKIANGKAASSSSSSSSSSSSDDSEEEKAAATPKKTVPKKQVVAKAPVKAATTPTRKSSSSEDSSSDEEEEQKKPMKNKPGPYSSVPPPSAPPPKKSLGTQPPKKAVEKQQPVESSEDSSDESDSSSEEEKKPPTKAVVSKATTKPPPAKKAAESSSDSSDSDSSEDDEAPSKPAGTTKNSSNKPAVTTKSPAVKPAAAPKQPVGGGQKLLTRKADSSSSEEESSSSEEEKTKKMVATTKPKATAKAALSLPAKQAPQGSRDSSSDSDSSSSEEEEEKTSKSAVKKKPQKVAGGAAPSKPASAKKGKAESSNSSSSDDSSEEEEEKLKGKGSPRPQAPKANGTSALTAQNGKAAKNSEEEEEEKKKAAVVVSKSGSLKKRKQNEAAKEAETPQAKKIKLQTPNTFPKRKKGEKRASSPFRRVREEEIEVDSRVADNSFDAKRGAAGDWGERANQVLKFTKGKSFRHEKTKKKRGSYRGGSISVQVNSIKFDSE
UniProt Q9Y4B6: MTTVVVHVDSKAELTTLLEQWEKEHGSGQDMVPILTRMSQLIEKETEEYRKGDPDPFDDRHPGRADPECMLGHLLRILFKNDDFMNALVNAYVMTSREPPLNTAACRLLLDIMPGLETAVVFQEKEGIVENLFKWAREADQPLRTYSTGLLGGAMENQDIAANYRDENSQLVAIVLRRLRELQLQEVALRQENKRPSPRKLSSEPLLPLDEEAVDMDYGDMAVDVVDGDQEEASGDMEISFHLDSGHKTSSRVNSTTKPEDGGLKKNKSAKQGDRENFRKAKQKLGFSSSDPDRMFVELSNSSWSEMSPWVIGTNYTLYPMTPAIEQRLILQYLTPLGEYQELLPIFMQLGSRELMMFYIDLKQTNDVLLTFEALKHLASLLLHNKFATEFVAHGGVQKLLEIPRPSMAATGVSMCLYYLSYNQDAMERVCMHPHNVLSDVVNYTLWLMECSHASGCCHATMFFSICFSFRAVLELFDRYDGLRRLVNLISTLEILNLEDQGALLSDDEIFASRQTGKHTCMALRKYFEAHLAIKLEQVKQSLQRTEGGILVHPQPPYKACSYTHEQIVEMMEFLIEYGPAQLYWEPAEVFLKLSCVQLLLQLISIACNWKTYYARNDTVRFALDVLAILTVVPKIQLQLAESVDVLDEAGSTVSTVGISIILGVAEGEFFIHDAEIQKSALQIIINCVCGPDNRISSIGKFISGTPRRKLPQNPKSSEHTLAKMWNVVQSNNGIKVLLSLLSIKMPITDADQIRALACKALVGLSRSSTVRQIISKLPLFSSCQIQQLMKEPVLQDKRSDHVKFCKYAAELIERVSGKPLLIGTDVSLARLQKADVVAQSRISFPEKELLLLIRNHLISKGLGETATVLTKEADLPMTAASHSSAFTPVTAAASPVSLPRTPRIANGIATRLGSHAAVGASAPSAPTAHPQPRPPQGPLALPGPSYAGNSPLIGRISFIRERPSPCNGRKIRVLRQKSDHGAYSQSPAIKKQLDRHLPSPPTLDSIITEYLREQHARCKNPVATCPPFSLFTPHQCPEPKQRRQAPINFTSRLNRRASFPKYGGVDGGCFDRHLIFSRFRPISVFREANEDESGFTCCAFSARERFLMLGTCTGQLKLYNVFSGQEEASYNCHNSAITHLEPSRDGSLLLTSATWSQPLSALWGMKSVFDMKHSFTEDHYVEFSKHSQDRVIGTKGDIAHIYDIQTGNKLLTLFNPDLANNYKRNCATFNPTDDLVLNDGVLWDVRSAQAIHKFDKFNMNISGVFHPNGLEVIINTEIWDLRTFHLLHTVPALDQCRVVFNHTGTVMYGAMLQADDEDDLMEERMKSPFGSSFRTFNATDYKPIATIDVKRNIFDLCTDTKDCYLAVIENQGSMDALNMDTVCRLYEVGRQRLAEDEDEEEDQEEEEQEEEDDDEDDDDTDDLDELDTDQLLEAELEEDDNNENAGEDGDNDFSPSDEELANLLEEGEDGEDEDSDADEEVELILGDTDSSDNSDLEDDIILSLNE
UniProt O14646: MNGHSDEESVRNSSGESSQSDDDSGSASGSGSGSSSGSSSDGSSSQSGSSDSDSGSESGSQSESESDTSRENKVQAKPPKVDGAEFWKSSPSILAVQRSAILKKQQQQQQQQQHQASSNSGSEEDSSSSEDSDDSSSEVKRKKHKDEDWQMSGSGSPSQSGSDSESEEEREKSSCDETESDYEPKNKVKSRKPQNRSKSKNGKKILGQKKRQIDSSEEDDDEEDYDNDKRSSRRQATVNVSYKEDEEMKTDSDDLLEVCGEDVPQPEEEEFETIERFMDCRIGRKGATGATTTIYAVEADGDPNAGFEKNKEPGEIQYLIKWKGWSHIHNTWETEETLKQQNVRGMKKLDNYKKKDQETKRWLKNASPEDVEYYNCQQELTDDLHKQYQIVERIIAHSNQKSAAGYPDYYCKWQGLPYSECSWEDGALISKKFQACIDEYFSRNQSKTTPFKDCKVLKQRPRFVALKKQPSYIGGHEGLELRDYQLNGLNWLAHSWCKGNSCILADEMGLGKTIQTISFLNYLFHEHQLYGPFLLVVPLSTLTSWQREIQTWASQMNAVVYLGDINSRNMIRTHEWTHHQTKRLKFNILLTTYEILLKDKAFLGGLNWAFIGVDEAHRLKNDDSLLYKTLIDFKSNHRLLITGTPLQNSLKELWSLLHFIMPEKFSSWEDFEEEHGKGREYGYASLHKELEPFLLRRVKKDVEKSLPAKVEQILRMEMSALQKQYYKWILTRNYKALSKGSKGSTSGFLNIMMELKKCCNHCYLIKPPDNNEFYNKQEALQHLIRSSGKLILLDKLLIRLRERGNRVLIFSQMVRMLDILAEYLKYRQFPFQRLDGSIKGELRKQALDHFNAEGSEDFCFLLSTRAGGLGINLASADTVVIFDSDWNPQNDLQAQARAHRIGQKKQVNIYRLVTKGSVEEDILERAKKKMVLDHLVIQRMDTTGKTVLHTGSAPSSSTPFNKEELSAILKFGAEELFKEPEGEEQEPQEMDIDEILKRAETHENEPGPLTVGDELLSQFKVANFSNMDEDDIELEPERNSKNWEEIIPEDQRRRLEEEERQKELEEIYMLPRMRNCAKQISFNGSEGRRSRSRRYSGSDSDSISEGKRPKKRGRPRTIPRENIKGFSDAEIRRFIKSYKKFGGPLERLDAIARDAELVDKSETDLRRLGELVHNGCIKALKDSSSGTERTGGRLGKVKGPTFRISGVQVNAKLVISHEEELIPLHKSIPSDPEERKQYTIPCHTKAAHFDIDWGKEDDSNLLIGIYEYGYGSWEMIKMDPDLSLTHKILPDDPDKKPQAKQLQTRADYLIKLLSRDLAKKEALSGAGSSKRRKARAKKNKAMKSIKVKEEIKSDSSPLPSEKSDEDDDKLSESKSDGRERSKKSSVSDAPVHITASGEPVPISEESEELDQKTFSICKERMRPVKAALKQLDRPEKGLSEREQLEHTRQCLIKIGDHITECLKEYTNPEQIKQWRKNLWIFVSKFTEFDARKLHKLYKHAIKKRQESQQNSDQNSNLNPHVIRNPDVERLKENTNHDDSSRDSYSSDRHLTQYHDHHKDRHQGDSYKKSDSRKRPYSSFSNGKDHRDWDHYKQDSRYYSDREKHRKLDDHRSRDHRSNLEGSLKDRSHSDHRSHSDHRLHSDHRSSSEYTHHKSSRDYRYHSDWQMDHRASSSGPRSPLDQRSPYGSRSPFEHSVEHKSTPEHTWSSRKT

These are yes or no findings as the source states them, for the method shown. Binding seen in cells or lysates may run through a third protein. Here binding means that the protein was enriched with, or labelled near, the bait; the list need not be complete. Tags and fused reporters may be left off the sequences shown.

With EPB41L5 (from UniProt Q9HCM4 1-733), the binding entry is on record as “binds”. The same measure for DDX41 (from UniProt Q9UJV9 1-622): “binds”; for NOLC1 (from UniProt Q14978 1-699): “binds”. For the molecule DCAF1 (from UniProt Q9Y4B6 1-1507), the binding result was “binds”. The same measure for CHD1 (from UniProt O14646 1-1710): “binds”.

B1: AP3B1 (protein, UniProt O00203 1-1094)
chain: MSSNSFPYNEQSGGGEATELGQEATSTISPSGAFGLFSSDLKKNEDLKQMLESNKDSAKLDAMKRIVGMIAKGKNASELFPAVVKNVASKNIEIKKLVYVYLVRYAEEQQDLALLSISTFQRALKDPNQLIRASALRVLSSIRVPIIVPIMMLAIKEASADLSPYVRKNAAHAIQKLYSLDPEQKEMLIEVIEKLLKDKSTLVAGSVVMAFEEVCPDRIDLIHKNYRKLCNLLVDVEEWGQVVIIHMLTRYARTQFVSPWKEGDELEDNGKNFYESDDDQKEKTDKKKKPYTMDPDHRLLIRNTKPLLQSRNAAVVMAVAQLYWHISPKSEAGIISKSLVRLLRSNREVQYIVLQNIATMSIQRKGMFEPYLKSFYVRSTDPTMIKTLKLEILTNLANEANISTLLREFQTYVKSQDKQFAAATIQTIGRCATNILEVTDTCLNGLVCLLSNRDEIVVAESVVVIKKLLQMQPAQHGEIIKHMAKLLDSITVPVARASILWLIGENCERVPKIAPDVLRKMAKSFTSEDDLVKLQILNLGAKLYLTNSKQTKLLTQYILNLGKYDQNYDIRDRTRFIRQLIVPNVKSGALSKYAKKIFLAQKPAPLLESPFKDRDHFQLGTLSHTLNIKATGYLELSNWPEVAPDPSVRNVEVIELAKEWTPAGKAKQENSAKKFYSESEEEEDSSDSSSDSESESGSESGEQGESGEEGDSNEDSSEDSSSEQDSESGRESGLENKRTAKRNSKAKGKSDSEDGEKENEKSKTSDSSNDESSSIEDSSSDSESESEPESESESRRVTKEKEKKTKQDRTPLTKDVSLLDLDDFNPVSTPVALPTPALSPSLMADLEGLHLSTSSSVISVSTPAFVPTKTHVLLHRMSGKGLAAHYFFPRQPCIFGDKMVSIQITLNNTTDRKIENIHIGEKKLPIGMKMHVFNPIDSLEPEGSITVSMGIDFCDSTQTASFQLCTKDDCFNVNIQPPVGELLLPVAMSEKDFKKEQGVLTGMNETSAVIIAAPQNFTPSVIFQKVVNVANVGAVPSGQDNIHRFAAKTVHSGSLMLVTVELKEGSTAQLIINTEKTVIGSVLLRELKPVLSQG
As to B1, the binding result is “binds”.

B2: PCCB (protein, UniProt P05166 29-539)
chain: CSQATSVNERIENKRRTALLGGGQRRIDAQHKRGKLTARERISLLLDPGSFVESDMFVEHRCADFGMAADKNKFPGDSVVTGRGRINGRLVYVFSQDFTVFGGSLSGAHAQKICKIMDQAITVGAPVIGLNDSGGARIQEGVESLAGYADIFLRNVTASGVIPQISLIMGPCAGGAVYSPALTDFTFMVKDTSYLFITGPDVVKSVTNEDVTQEELGGAKTHTTMSGVAHRAFENDVDALCNLRDFFNYLPLSSQDPAPVRECHDPSDRLVPELDTIVPLESTKAYNMVDIIHSVVDEREFFEIMPNYAKNIIVGFARMNGRTVGIVGNQPKVASGCLDINSSVKGARFVRFCDAFNIPLITFVDVPGFLPGTAQEYGGIIRHGAKLLYAFAEATVPKVTVITRKAYGGAYDVMSSKHLCGDTNYAWPTAEIAVMGAKGAVEIIFKGHENVEAAQAEYIEKFANPFPAAVRGFVDDIIQPSSTRARICCDLDVLASKKVQRPWRKHANIPL
Take B2: the binding result is “binds”.

B3: RNPS1 (protein, UniProt Q15287 1-305)
chain: MDLSGVKKKSLLGVKENNKKSSTRAPSPTKRKDRSDEKSKDRSKDKGATKESSEKDRGRDKTRKRRSASSGSSSTRSRSSSTSSSGSSTSTGSSSGSSSSSASSRSGSSSTSRSSSSSSSSGSPSPSRRRHDNRRRSRSKSKPPKRDEKERKRRSPSPKPTKVHIGRLTRNVTKDHIMEIFSTYGKIKMIDMPVERMHPHLSKGYAYVEFENPDEAEKALKHMDGGQIDGQEITATAVLAPWPRPPPRRFSPPRRMLPPPPMWRRSPPRMRRRSRSPRRRSPVRRRSRSPGRRRHRSRSSSNSSR
Turning to B3, the binding entry is “binds”.

B4: AP3M1 (protein, UniProt Q9Y2T2 1-418)
chain: MIHSLFLINCSGDIFLEKHWKSVVSQSVCDYFFEAQEKAADVENVPPVISTPHHYLISIYRDKLFFVSVIQTEVPPLFVIEFLHRVADTFQDYFGECSEAAIKDNVVIVYELLEEMLDNGFPLATESNILKELIKPPTILRSVVNSITGSSNVGDTLPTGQLSNIPWRRAGVKYTNNEAYFDVVEEIDAIIDKSGSTVFAEIQGVIDACIKLSGMPDLSLSFMNPRLLDDVSFHPCIRFKRWESERVLSFIPPDGNFRLISYRVSSQNLVAIPVYVKHSISFKENSSCGRFDITIGPKQNMGKTIEGITVTVHMPKVVLNMNLTPTQGSYTFDPVTKVLTWDVGKITPQKLPSLKGLVNLQSGAPKPEENPSLNIQFKIQQLAISGLKVNRLDMYGEKYKPFKGVKYVTKAGKFQVRT
On to B4, for which the binding entry was “binds”.

B5: ZC3H18 (protein, UniProt Q86VM9 1-953)
chain: MDVAESPERDPHSPEDEEQPQGLSDDDILRDSGSDQDLDGAGVRASDLEDEESAARGPSQEEEDNHSDEEDRASEPKSQDQDSEVNELSRGPTSSPCEEEGDEGEEDRTSDLRDEASSVTRELDEHELDYDEEVPEEPAPAVQEDEAEKAGAEDDEEKGEGTPREEGKAGVQSVGEKESLEAAKEKKKEDDDGEIDDGEIDDDDLEEGEVKDPSDRKVRPRPTCRFFMKGNCTWGMNCRFIHPGVNDKGNYSLITKADPFPPNGAPPLGPHPLMPANPWGGPVVDEILPPPPPEPPTESAWERGLRHAKEVLKKATIRKEQEPDFEEKRFTVTIGEDEREFDKENEVFRDWNSRIPRDVRDTVLEPYADPYYDYEIERFWRGGQYENFRVQYTETEPYHNYRERERERERENRQRERERERERDRERERRQRERERERERERDKERQRRKEEWERERAKRDEKDRQHRDRDREKEREKEKGKPKPRSPQPPSRQAEPPKKEAATTGPQVKRADEWKDPWRRSKSPKKKLGVSVSPSRARRRRKTSASSASASNSSRSSSRSSSYSGSGSSRSRSRSSSYSSYSSRSSRHSSFSGSRSRSRSFSSSPSPSPTPSPHRPSIRTKGEPAPPPGKAGEKSVKKPAPPPAPPQATKTTAPVPEPTKPGDPREARRKERPARTPPRRRTLSGSGSGSGSSYSGSSSRSRSLSVSSVSSVSSATSSSSSAHSVDSEDMYADLASPVSSASSRSPAPAQTRKEKGKSKKEDGVKEEKRKRDSSTQPPKSAKPPAGGKSSQQPSTPQQAPPGQPQQGTFVAHKEIKLTLLNKAADKGSRKRYEPSDKDRQSPPPAKRPNTSPDRGSRDRKSGGRLGSPKPERQRGQNSKAPAAPADRKRQLSPQSKSSSKVTSVPGKASDPGAASTKSGKASTLSRREELLKQLKAVEDAIARKRAKIPGKA
With B5, the binding result is recorded as “binds”.

B6: FNBP4 (protein, UniProt Q8N3X1 1-1017)
chain: MGKKSRAVPGRRPILQLSPPGPRGSTPGRDPEPEPDTEPDSTAAVPSQPAPSAATTTTTAVTAAAASDDSPSEDEQEAVQEVPRVVQNPPKPVMTTRPTAVKATGGLCLLGAYADSDDDDNDVSEKLAQSKETNGNQSTDIDSTLANFLAEIDAITAPQPAAPVGASAPPPTPPRPEPKEAATSTLSSSTSNGTDSTQTSGWQYDTQCSLAGVGIEMGDWQEVWDENTGCYYYWNTQTNEVTWELPQYLATQVQGLQHYQPSSVPGAETSFVVNTDIYSKEKTISVSSSKSGPVIAKREVKKEVNEGIQALSNSEEEKKGVAASLLAPLLPEGIKEEEERWRRKVICKEEPVSEVKETSTTVEEATTIVKPQEIMLDNIEDPSQEDLCSVVQSGESEEEEEQDTLELELVLERKKAELRALEEGDGSVSGSSPRSDISQPASQDGMRRLMSKRGKWKMFVRATSPESTSRSSSKTGRDTPENGETAIGAENSEKIDENSDKEMEVEESPEKIKVQTTPKVEEEQDLKFQIGELANTLTSKFEFLGINRQSISNFHVLLLQTETRIADWREGALNGNYLKRKLQDAAEQLKQYEINATPKGWSCHWDRDHRRYFYVNEQSGESQWEFPDGEEEEEESQAQENRDETLAKQTLKDKTGTDSNSTESSETSTGSLCKESFSGQVSSSSLMPLTPFWTLLQSNVPVLQPPLPLEMPPPPPPPPESPPPPPPPPPPAEDGEIQEVEMEDEGSEEPPAPGTEEDTPLKPSAQTTVVTSQSSVDSTISSSSSTKGIKRKATEISTAVVQRSATIGSSPVLYSQSAIATGHQAAGIGNQATGIGHQTIPVSLPAAGMGHQARGMSLQSNYLGLAAAPAIMSYAECSVPIGVTAPSLQPVQARGAVPTATIIEPPPPPPPPPPPPPPAPKMPPPEKTKKGRKDKAKKSKTKMPSLVKKWQSIQRELDEEDNSSSSEEDRESTAQKRIEEWKQQQLVSGMAERNANFEALPEDWRARLKRRKMAPNT
B6: the binding entry is listed as “binds”.

B7: VANGL1 (endogenous, found by TAP-MS) (protein, UniProt Q8TAA9 1-524)
chain: MDTESTYSGYSYYSSHSKKSHRQGERTRERHKSPRNKDGRGSEKSVTIQPPTGEPLLGNDSTRTEEVQDDNWGETTTAITGTSEHSISQEDIARISKDMEDSVGLDCKRYLGLTVASFLGLLVFLTPIAFILLPPILWRDELEPCGTICEGLFISMAFKLLILLIGTWALFFRKRRADMPRVFVFRALLLVLIFLFVVSYWLFYGVRILDSRDRNYQGIVQYAVSLVDALLFIHYLAIVLLELRQLQPMFTLQVVRSTDGESRFYSLGHLSIQRAALVVLENYYKDFTIYNPNLLTASKFRAAKHMAGLKVYNVDGPSNNATGQSRAMIAAAARRRDSSHNELYYEEAEHERRVKKRKARLVVAVEEAFIHIQRLQAEEQQKAPGEVMDPREAAQAIFPSMARALQKYLRITRQQNYHSMESILQHLAFCITNGMTPKAFLERYLSAGPTLQYDKDRWLSTQWRLVSDEAVTNGLRDGIVFVLKCLDFSLVVNVKKIPFIILSEEFIDPKSHKFVLRLQSETSV
For B7, the binding result is recorded as “binds”.

B8: LUC7L3 (protein, UniProt O95232 1-432)
chain: MISAAQLLDELMGRDRNLAPDEKRSNVRWDHESVCKYYLCGFCPAELFTNTRSDLGPCEKIHDENLRKQYEKSSRFMKVGYERDFLRYLQSLLAEVERRIRRGHARLALSQNQQSSGAAGPTGKNEEKIQVLTDKIDVLLQQIEELGSEGKVEEAQGMMKLVEQLKEERELLRSTTSTIESFAAQEKQMEVCEVCGAFLIVGDAQSRVDDHLMGKQHMGYAKIKATVEELKEKLRKRTEEPDRDERLKKEKQEREEREKEREREREERERKRRREEEEREKERARDRERRKRSRSRSRHSSRTSDRRCSRSRDHKRSRSRERRRSRSRDRRRSRSHDRSERKHRSRSRDRRRSKSRDRKSYKHRSKSRDREQDRKSKEKEKRGSDDKKSSVKSGSREKQSEDTNTESKESDTKNEVNGTSEDIKSEGDTQSN
Turning to B8, the binding entry is reported as “binds”.

These data come from publication PMC11582751.
